# Out of some 400,000 compounds screened, about 13,000 (3.2%) were called active. Inconclusive results, whose numbers are uncertain, are shown with a selection of clear calls. Calls follow the shape of the dose curve; as a rule, active = well fitted cell-killing curve with a large enough effect; inconclusive = small, poorly fitted or top-dose-only effect, or effect the other way; inactive = flat fitted curve, though single readings scatter. Potencies of inconclusive entries are doubtful fits and often do not repeat.
# Test: qHTS assay for MDR1-selective chemotherapeutics: Primary screen using the drug-selected MDR subline cells KB-V1; also: nearly all actives have a fitted effect of over 60% in size
# Conditions: KB-V1 MDR cells viability, CellTiter-Glo, 72 h; activity change, negative = cytotoxicity: at 46.1 µM (top of the series)
# How it was run: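 Potencies derive from concentration-effect curves fitted to normalized luminescence (CellTiter-Glo) of KB-V1 cells treated for 72 h at 37 degrees C in phenol-red-free DMEM containing 10% FBS.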
# % is scaled to controls: 0 for no effect and ±100 for the full control effect; potency is read from the fitted curve at half-maximal effect.
SMILES,Potency,"activity change, negative = cytotoxicity"
O=C(CCCC(=O)OCC(Cl)=C(Cl)Cl)Nc1ccccc1F,"inconclusive: 18.4 µM [rising, single point]",
CC1CCC(NC(=O)CN2C(=O)NC3(CCCCC3C)C2=O)CC1 (configuration not stated),,inactive: -21.9%
COc1ccccc1NC(=O)N1CCOCC1,"inconclusive: 10.3 µM [rising, partial curve, poor fit]",
CCOc1ccc2nc(Cl)c(C3CC(c4ccco4)=NN3S(C)(=O)=O)cc2c1 (configuration not stated),"inconclusive: 0.58 µM [cytotoxic, partial curve, poor fit]",
COc1ccc(NC(C(=O)Nc2cccc(C(C)=O)c2)c2ccccc2)cc1 (configuration not stated),active: 4.61 µM,
CSc1ncccc1C(=O)NCC(c1ccco1)N1CCCCC1 (configuration not stated),"inconclusive: 9.2 µM [cytotoxic, partial curve]",
c1ccc(-c2ccccc2-c2nc(-c3ccncc3)no2)cc1,,inactive: 3.34%
Cc1ccc(S(=O)(=O)NCCCCCC(=O)Nc2ccccc2C)cc1,"inconclusive: 14.6 µM [cytotoxic, partial curve]",
CCOC(=O)c1csc(-n2nc(C)cc2C(F)(F)F)n1,"inconclusive: 29.1 µM [rising, single point]",
COc1ccc(-c2oc3ncn4nc(-c5cccc(C)c5)nc4c3c2-c2ccc(OC)cc2)cc1,"inconclusive: 20.6 µM [rising, single point]",
O=[N+]([O-])c1ccc(/C=N/Nc2nc(N3CCCCCC3)nc(N3CCCCCC3)n2)o1,"inconclusive: 16.4 µM [cytotoxic, partial curve]",
Cc1ccc(NC(N)=S)cc1C,,inactive: 19.7%
CCCCn1c(SCC(=O)/C(C#N)=C(\C)N)nc2ccccc2c1=O,"inconclusive: 10.3 µM [cytotoxic, partial curve, poor fit]",
O=c1c2sccc2n(Cc2cc(=O)n3ccccc3n2)c(=O)n1-c1ccccc1,"inconclusive: 9.2 µM [cytotoxic, partial curve]",
Cc1ccc(C(=O)NCC(=O)N(C)CC(=O)Nc2ccccc2Br)s1,active: 20.6 µM,
COc1ccc(CCNC(=O)c2cc(-c3ccc(C)cc3)nc3n[nH]c(-c4ccccc4)c23)cc1OC,"inconclusive: 1.84 µM [cytotoxic, full curve]",
COc1ccc(OC)c(NC(=O)CCn2cnnn2)c1,"inconclusive: 29.1 µM [rising, single point]",
CCc1ccc(C2=CC(c3cc(Br)ccc3F)n3ncnc3N2)cc1 (configuration not stated),active: 9.2 µM,
CC(/C=N/n1c(-c2cccnc2)n[nH]c1=S)=C\c1ccccc1,active: 16.4 µM,
Cn1c(SCC(=O)Nc2ccccc2C(F)(F)F)nc2c(c1=O)SCC2,"inconclusive: 23.1 µM [cytotoxic, partial curve]",
OC(CC(O)c1ccccc1)c1ccccc1 (configuration not stated),"inconclusive: 18.4 µM [rising, single point]",
CCN(CC)CCN1C(=O)C(=O)/C(=C(/O)c2ccc(S(=O)(=O)N3CCOCC3)cc2)C1c1ccc(C)cc1 (configuration not stated),"inconclusive: 16.4 µM [rising, single point]",
Clc1nc(-c2ccccn2)nc2scc(-c3ccccc3)c12,active: 11.6 µM,
CC(NC(=O)c1ccc(Cl)cc1)c1nnc(SCC(=O)NC2=NCCS2)n1C (configuration not stated),,inactive: -8.66%

SMILES,Potency,"activity change, negative = cytotoxicity"
Cc1ccc(-c2nc3[nH]c(=O)cc(NC(=O)c4cccs4)n3n2)cc1,"inconclusive: 29.1 µM [cytotoxic, single point]",
CSc1ccc(CN2CCC2(C)C(=O)Nc2ccc3c(c2)OCO3)cc1 (configuration not stated),"inconclusive: 29.1 µM [cytotoxic, single point]",
COc1cc(CN(C(=O)COc2ccc(Br)cc2)c2ccccn2)cc(OC)c1OC,,inactive: -15.5%
CC1(C)C2CCC1(CS(=O)(=O)Nc1ccc(S(=O)(=O)NC3CCCCC3)cc1)C(=O)C2 (configuration not stated),active: 16.4 µM,
COc1ccc(-c2cc([N+](=O)[O-])ccc2OCC(=O)N(C)CC(=O)Nc2ccc(C)cc2)cc1,"inconclusive: 16.4 µM [cytotoxic, single point]",
CSc1nc(N)c(C#N)c(-c2ccccc2Cl)c1C#N,"inconclusive: 29.1 µM [cytotoxic, single point]",
COc1ccc(CNC(=O)C2CCN(c3nc4ccccc4[nH]3)CC2)c(OC)c1,,inactive: -2.67%
O=c1[nH]c(-c2ccc(F)cc2)nc2c1sc(=S)n2-c1ccccc1,"inconclusive: 20.6 µM [cytotoxic, single point]",
CC(=O)COc1ccc2c3c(c(=O)oc2c1)CCCC3,active: 11.6 µM,
CCCCCOC(=O)c1cc(=O)[nH]c2ccccc12,active: 2.31 µM,
CC(C)C(=O)N1CCN(c2ccccc2NC(=O)c2ccc3c(c2)OCCO3)CC1,"inconclusive: 20.6 µM [rising, single point]",
COc1ccc(-n2nc(C(=O)N3CCC(N4CCCCC4)CC3)c3c4ccccc4n(C)c3c2=O)cc1,"inconclusive: 29.1 µM [rising, single point]",
CCCn1c(NCc2ccco2)nc2ccccc21,active: 20.6 µM,
CCOc1ccc(NC(=O)C2CCCN(c3c(CC)c(C)nc4ncnn34)C2)cc1 (configuration not stated),"inconclusive: 6.51 µM [cytotoxic, partial curve]",
CN(C)S(=O)(=O)Nc1ccc(Br)cc1F,,inactive: 9.7%
CCOC(=O)/C(=C\C=C\c1ccccc1)NC(=O)c1ccccc1,active: 4.61 µM,
C/C(=N/NC(=O)c1ccccc1O)c1ccc(N2C(=O)C3CCCCC3C2=O)cc1 (configuration not stated),"inconclusive: 13 µM [rising, partial curve]",
CCN(CCCNC(=O)CNC(=O)c1nn(-c2ccc(OC)cc2OC)c(=O)c2ccccc12)c1cccc(C)c1,"inconclusive: 16.4 µM [cytotoxic, single point]",
CCOc1ccc(NC(=O)CN(C)C(=O)c2cc(C3CC3)nn2-c2ccccc2)cc1OCC,"inconclusive: 5.17 µM [cytotoxic, full curve]",
O=c1[nH]c(=O)c2cn[nH]c2[nH]1,,inactive: 14.3%
COc1cccc(C(=O)N(Cc2ccco2)Cc2cc3cccc(C)c3[nH]c2=O)c1,"inconclusive: 23.1 µM [cytotoxic, single point]",
COc1ccc(NC(=O)c2nc[nH]c2C(=O)N2CCN(C(=O)OC(C)(C)C)CC2)cc1,,inactive: 2.16%
CC(=O)c1ccc(NC(=S)NC(=O)/C=C/c2ccco2)cc1,,inactive: 0.894%
Cc1ccc(C)c(-n2c(-c3ccco3)n[nH]c2=S)c1,"inconclusive: 23.1 µM [rising, single point]",

SMILES,Potency,"activity change, negative = cytotoxicity"
COc1cccc(CN2CCNC(=O)C2CC(=O)N(C)CCC2CCOCC2)c1OC (configuration not stated),"inconclusive: 20.6 µM [rising, partial curve, poor fit]",
Cc1ccc(C)c(N2CCN(C(=O)c3cc4ccc5cccnc5c4[nH]3)CC2)c1,,inactive: -27.2%
Cc1ccc(Nc2n[nH]c(C)c2[N+](=O)[O-])c(C)c1,,inconclusive: 14.8%
Cc1cc(/C=C/c2ccnc3ccccc23)ccc1N(C)C,active: 13 µM,
O=C1N(CCCN2C(=O)C3(OCCO3)c3ccccc32)c2ccccc2C12OCCO2,active: 11.6 µM,
CCN(CC)c1cc2c(c3c1ccn3C)C1CCC2O1 (configuration not stated),"inconclusive: 20.6 µM [cytotoxic, partial curve]",
Cc1cc(C)c(S(=O)(=O)NCc2ccncc2)c(C)c1,,inactive: 0%
COc1ccccc1NS(=O)(=O)c1cc(C(=O)NCC(c2ccco2)N(C)C)ccc1C (configuration not stated),"inconclusive: 7.31 µM [cytotoxic, partial curve, poor fit]",
CCS(=O)(=O)c1ccc(O)c(NC(=O)CC2(CC(=O)O)CCCC2)c1,"inconclusive: 11.6 µM [rising, partial curve]",
CCOc1ccc(-c2c(C(=O)N/N=C(\C)c3cccnc3)nnn2-c2nonc2N)cc1,"inconclusive: 32.6 µM [rising, partial curve, poor fit]",
Cc1ccc(OCC(=O)Nc2ccc(Cl)c(-c3nc4ncccc4o3)c2)cc1C,"inconclusive: 8.2 µM [cytotoxic, partial curve]",
Cc1cc(C)cc(NC(=O)CN2C(=O)CSc3ccc(S(=O)(=O)N(C)C)cc32)c1,,inactive: 15.6%
CCCCN=CC1=C(O)CC(c2ccccc2)CC1=O (configuration not stated),"inconclusive: 20.6 µM [cytotoxic, single point]",
Cc1onc(-c2ccccc2Cl)c1C(=O)Nc1ccc(Br)cc1,,inactive: 6.61%
O=C(CSc1nnnn1C1CCCCC1)Nc1cccc(NC(=O)c2ccco2)c1,"inconclusive: 20.6 µM [cytotoxic, partial curve, poor fit]",
CC(=O)Nc1ccc(NC(=O)CSc2nnc(NC(=O)C3CC3)s2)cc1,"inconclusive: 18.4 µM [rising, partial curve, poor fit]",
CCOc1ccc(NC(=S)N=Nc2c(O)[nH]c3ccccc23)cc1,"inconclusive: 5.17 µM [cytotoxic, full curve]",
NC(=S)c1ncc(C(F)(F)F)cc1Cl,"inconclusive: 20.6 µM [rising, partial curve, poor fit]",
O=C(CCNC(=O)c1ccc(Br)cc1)NC1CCCCCC1,active: 16.4 µM,
COc1ccccc1CNC(=O)CCn1c(=O)c2ccccc2n(CC(=O)Nc2ccc(C)cc2)c1=O,,inactive: 0%
Cc1cc(C)c(CN2CCN(C(=O)Cn3cnc4c(NCc5ccccc5)ncnc43)CC2)c(C)c1,"inconclusive: 18.4 µM [cytotoxic, single point]",
CCC1CN(C(=O)NCc2ccc(C)cc2)c2cc(C)ccc2O1 (configuration not stated),,inactive: 1.78%
COC(=O)c1sc2ccccc2c1-n1cccc1C(=O)C(=O)Nc1ccc(C)cc1,active: 9.2 µM,
CC1=C[C@@H](C)[C@@H](c2ccc(C(F)(F)F)cc2)OC1=O,"inconclusive: 23.1 µM [rising, partial curve]",

# Part of the list above, as tab-separated lines.
SMILES	Potency	activity change, negative = cytotoxicity
COc1ccccc1NS(=O)(=O)c1cc(C(=O)NCC(c2ccco2)N(C)C)ccc1C (configuration not stated)	inconclusive: 7.31 µM [cytotoxic, partial curve, poor fit]	
CCCCN=CC1=C(O)CC(c2ccccc2)CC1=O (configuration not stated)	inconclusive: 20.6 µM [cytotoxic, single point]	
CCC1CN(C(=O)NCc2ccc(C)cc2)c2cc(C)ccc2O1 (configuration not stated)		inactive: 1.78%
